Results reported in patent EP0403366A2, “Cyclomalto-oligosaccharide derivatives and processes for their preparation” (priority 1989, dated 1990).
Like-named read-outs stand apart in the source and are kept apart here. The name of at least one read-out is uncertain.

Assay: Apparent stability constant of inclusion complexes
Settings: read-out: Constante de stabilité des complexes
[1] = inclusion complex with CG7, Solution aqueuse à 1,7.10^-2 mol/l de CG7
[2] = inclusion complex with composé n°1, Solution aqueuse à 3,10^-2mol/l de composé n°1
[3] = inclusion complex with composé n° 2, Solution aqueuse à 3,10^-2 mol/l de composé n° 2

Structure (SMILES) | Kd [1] | Kd [2] | Kd [3]
Cc1cccc(N(C)C(=S)Oc2ccc3ccccc3c2)c1 [Tolnaftate, O-2-Naphtyl-méthyl-(3-méthylphényl)-carbomothioate] | 752 µM | 29.1 µM | 57.7 µM
C[C@]12CCC(=O)C=C1CC[C@@H]1[C@@H]2[C@@H](O)C[C@@]2(C)[C@H]1CC[C@]2(O)C(=O)CO [Hydrocortisone] | 269 µM | 602 µM | 358 µM
